Holding throughout (test): affinity purification with mass spectrometry
Assay [1] concerns the target YFP-COR27 (COLD REGULATED GENE 27) (Arabidopsis thaliana), Q8L8T7. The settings on record: remark: other sources report otherwise.
The target of assay [2] is T1, GFP-COR28 (COLD REGULATED GENE 28) (Arabidopsis thaliana) (UniProt Q8L983).
T1 sequence: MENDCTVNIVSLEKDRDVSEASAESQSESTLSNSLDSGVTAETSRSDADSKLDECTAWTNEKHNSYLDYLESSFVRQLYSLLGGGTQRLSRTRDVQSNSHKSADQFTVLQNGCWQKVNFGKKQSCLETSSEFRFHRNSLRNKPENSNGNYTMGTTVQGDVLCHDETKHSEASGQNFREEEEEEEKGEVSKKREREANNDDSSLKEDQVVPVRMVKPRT

The chains behind the UniProt entries cited, without tags or fusion partners. Where a name states a change or a piece, a line headed by the entry shows the natural chain unless it says otherwise.
UniProt Q8L8T7: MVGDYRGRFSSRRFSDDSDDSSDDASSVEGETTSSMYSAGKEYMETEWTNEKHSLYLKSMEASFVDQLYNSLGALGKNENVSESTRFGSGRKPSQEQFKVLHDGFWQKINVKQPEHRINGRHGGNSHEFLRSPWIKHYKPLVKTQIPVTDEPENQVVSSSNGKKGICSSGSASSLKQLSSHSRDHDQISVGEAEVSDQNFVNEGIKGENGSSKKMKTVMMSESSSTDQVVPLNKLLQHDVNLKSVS

Assay [3] deals with T2, LNK1-HFC (NIGHT LIGHT INDUCIBLE AND CLOCK REGULATED 1 with 3x-FLAG-6x-His C-terminal tag) (Arabidopsis thaliana) (UniProt A8MQN2).
T2 sequence: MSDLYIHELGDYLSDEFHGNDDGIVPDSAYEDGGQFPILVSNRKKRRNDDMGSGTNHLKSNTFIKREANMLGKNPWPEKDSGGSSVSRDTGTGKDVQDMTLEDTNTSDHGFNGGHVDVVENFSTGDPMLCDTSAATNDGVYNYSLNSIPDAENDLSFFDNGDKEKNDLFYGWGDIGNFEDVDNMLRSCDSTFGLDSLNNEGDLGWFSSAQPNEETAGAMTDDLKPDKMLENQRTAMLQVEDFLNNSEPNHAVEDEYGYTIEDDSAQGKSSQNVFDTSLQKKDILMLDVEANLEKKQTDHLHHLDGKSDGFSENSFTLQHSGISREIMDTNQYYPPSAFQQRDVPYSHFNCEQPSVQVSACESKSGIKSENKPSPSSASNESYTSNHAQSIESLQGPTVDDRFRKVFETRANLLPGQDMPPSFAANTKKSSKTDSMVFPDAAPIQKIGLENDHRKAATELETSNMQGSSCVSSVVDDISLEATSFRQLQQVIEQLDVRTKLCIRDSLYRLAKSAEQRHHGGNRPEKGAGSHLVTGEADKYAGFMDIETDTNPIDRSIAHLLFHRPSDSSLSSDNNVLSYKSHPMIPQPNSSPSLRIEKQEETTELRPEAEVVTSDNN

The target of assay [4] is T3, LNK2-HFC (NIGHT LIGHT INDUCIBLE AND CLOCK REGULATED 2 with 3x-FLAG-6x-His C-terminal tag) (Arabidopsis thaliana) (UniProt F4JCX9).
T3 sequence: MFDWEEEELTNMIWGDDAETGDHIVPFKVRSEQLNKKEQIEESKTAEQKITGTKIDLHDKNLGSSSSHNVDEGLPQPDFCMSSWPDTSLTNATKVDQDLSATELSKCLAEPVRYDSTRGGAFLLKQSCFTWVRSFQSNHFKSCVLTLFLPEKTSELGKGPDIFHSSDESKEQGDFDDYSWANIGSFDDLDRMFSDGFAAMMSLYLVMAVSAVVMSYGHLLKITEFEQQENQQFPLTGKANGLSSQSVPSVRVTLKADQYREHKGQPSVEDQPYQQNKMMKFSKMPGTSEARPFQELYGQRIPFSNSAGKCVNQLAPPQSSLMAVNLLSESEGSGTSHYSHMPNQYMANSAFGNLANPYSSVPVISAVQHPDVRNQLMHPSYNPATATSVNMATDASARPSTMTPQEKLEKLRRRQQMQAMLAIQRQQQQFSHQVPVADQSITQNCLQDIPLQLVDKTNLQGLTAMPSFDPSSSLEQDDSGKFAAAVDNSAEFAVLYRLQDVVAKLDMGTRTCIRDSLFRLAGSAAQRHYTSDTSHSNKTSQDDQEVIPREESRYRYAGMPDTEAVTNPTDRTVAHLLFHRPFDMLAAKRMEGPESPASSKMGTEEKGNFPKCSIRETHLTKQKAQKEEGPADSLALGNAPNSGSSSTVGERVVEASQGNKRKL

Assay [5] has as its target YFP-COR27 (COLD REGULATED GENE 27) (Arabidopsis thaliana) (UniProt Q8L8T7).

Data on four molecules can be found in doi:10.1101/2022.05.16.492168.

These are yes or no findings as the source states them, for the method shown. In cells and extracts the contact can be indirect. A yes stands for co-enrichment or nearness to the bait. Other partners may have been found. For some of these results: Where a sequence is shown, tags or fusion partners need not be part of it.

B1: SPA2, Q9T014 1-1036 (protein)
chain: MMDEGSVGDVSRIDEADVAHLQFKNSEQSFKPENIEVREVKEVQVQREAGSPDCSYGVIADFLDGKNGGDHVELIGNEPCSSRQNTNDEGDVVEELTVKTCEGSSMAIVGRPSSRARLEMNRSQFLHRFPLDGDLPGSSSMSKKVIDRGTVSILRNAGKMSLPETSNGQLAIIAVNGEANEHLTNVERNPVPVEALSHEGIKTKMLSQSGFSQFFVRKTLKGKGVTFRGPPNNRSKARNMDQQTVASSGSALVIANTSAKISSSIPLAAYDGLPCLPSNTSKPSSCANPSDTHRGCGGEGLSLREWLKSERQEVNKAECMYIFRQIVDHVDCSHSQGVVLCDLRPSSFKIFKENAVKYVVSGSQRESFDSNMNKETLSQLENPLVRRRLGDTSSLSIPAKKQKSSGPSSRQWPMFQRAGGVNIQTENNDGAIQEFHFRSSQPHCSTVACPFTSVSEQLEEKWYASPEELRGDMRSASSNIYSLGILLYELLSQFQCERAREAAMSDIRHRILPPKFLSENPKEAGFCLWLLHPESSCRPSTRDILQSEVVNGIPDLYAEGLSLSIEQEDTESELLQHFLFLSQEKRQKHAGNLMEEIASVEADIEEIVKRRCAIGPPSLEEASSSSPASSVPEMRLIRNINQLESAYFAARIDAHLPEARYRLRPDRDLLRNSDNTVAEVENSETWSSDDRVGAFFDGLCKYARYSKFETRGVLRTSELNNTSNVICSLGFDRDEDYFATAGVSKKIKIYEFNSLFNESVDIHYPAIEMPNRSKLSGVCWNNYIRNYLASSDYDGIVKLWDVTTGQAISHFIEHEKRAWSVDFSEACPTKLASGSDDCSVKLWNINERNCLGTIRNIANVCCVQFSPQSSHLLAFGSSDFRTYCYDLRNLRTPWCILSGHNKAVSYAKFLDNETLVTASTDNTLKLWDLKKTTHGGLSTNACSLTFGGHTNEKNFVGLSTSDGYIACGSETNEVYAYHRSLPMPITSYKFGSIDPISGKEIEEDNNLFVSSVCWRKRSNMVVSASSNGSIKVLQLV
In the case of B1, the binding result in assay [1] was “binds”.

B2: REVEILLE 5 (RVE5) (protein, UniProt C0SVG5 1-303)
chain: MVSVNPRPKGFPVFDSSNMSLPSSDGFGSIPATGRTSTVSFSEDPTTKIRKPYTIKKSRENWTDQEHDKFLEALHLFDRDWKKIEAFVGSKTVVQIRSHAQKYFLKVQKSGANEHLPPPRPKRKASHPYPIKAPKNVAYTSLPSSSTLPLLEPGYLYSSDSKSLMGNQAVCASTSSSWNHESTNLPKPVIEVEEPGVSATAPLPNNRCRQEDTERVRAVTKPNNEESCEKPHRVMPNFAEVYSFIGSVFDPNTSGHLQRLKQMDPINMETVLLLMQNLSVNLTSPEFAEQRRLISSYSAKALK
B2: the binding result in assay [2], in assay [3], in assay [4] and in assay [5] was “binds” each time.

B3: REVEILLE 6 (RVE6) (protein, UniProt Q8H0W3 1-331)
chain: MVSRNSDGYFLDPTGMTVPGLGPSFTAAVSSSSSPTTSSTAVAVADVTAMVSSSEEDLSKKIRKPYTITKSRESWTEPEHDKFLEALQLFDRDWKKIEAFIGSKTVIQIRSHAQKYFLKVQKSGTGEHLPPPRPKRKAAHPYPQKAHKNVQLQVPGSFKSTSEPNDPSFMFRPESSSMLMTSPTTAAAAPWTNNAQTISFTPLPKAGAGANNNCSSSSENTPRPRSNRDARDHGNVGHSLRVLPDFAQVYGFIGSVFDPYASNHLQKLKKMDPIDVETVLLLMRNLSINLSSPDFEDHRRLLSSYDIGSETATDHGGVNKTLNKDPPEIST
Consider B3, for which the binding result in assay [2], in assay [3], in assay [4] and in assay [5] was “binds” in each case.

B4: SPA3, Q9LJR3 1-845 (protein)
chain: MEGSSNSNSRGFNTSGVSDRNTEFLPVERLTTRSKPSSHVDEYVRSLFGSTSTHKSGEDDSLGIDPFVRSLEWGDVSLRQWLDKPERSVDVFECLHVFRQIVEIVNAAHSQGIVVHNVRPSCFVMSSFNHVSFIESASCSDSGSDSLEDGPISQKEIGSSRREEAVSKAIAIEEKGVYNKLLERKIEKLEEEKTQPFPMKHILAMETSWYTSPEEDFGSSSTCASDVYRLGVLLFELFCPVPSREEKSRTMSSLRHRVLPPQILLKCPKEASFCLWLLHPEPTCRPSMSDLLQSEFITEPRDNLEEREAAIELRDRIEEQESLLEFLLLIQQRKQESAYRLQDTVSLLSSDIEQVVKRQLILKKRGSSLSDFSKDDHQYTSGQPLMSFQANEEPSAFLASRKRVRQGILALENGVEVDEESQGSTLLESSRLMRNFKKLESVYFLTRRRQMKAAASGKSLTRHSPLSSENGRGSMIVSEKSSVSNPVAPKAFFNNDSRQGGWIDPFLEGLCRYLSFSQLRVKADLKQGDLLNSSNLVCALAFDREGELFATAGVNKKIKIFECNSIVNDNRDIHYPVVELAGRSKLSSLCWNSYIKSQIASSNFDGVVQIWDVARSQLVTEMKEHKKRVWSIDISSADPTLLASGSDDGTVKLWSINQGVSIGTIKTKANVCCVQFPSDSGRSLAFGSADHKVYYYDLRNPKIPLCTMIGHSKTVSYVKFVDSSTLVSSSTDNTLKLWDLSMSASGINESPLHSFTGHTNLKNFVGLSVSDGYIATGSETNEVFVYHKAFPMPVMSYMFNNTDSMSGLEVDDASQFISSICWRGQSSTLVAANSNGNIKILEMMT
For B4, in assay [1], the binding result was “binds”.
